Results deposited as PubChem BioAssay AID504793 (Drosophila RNAi Screening Center, 2011)
The screen tested about 23,000 reagents; below is an unselected part of those with a known target gene and a result. In the full data, 62 (0.27%) got an active call. 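Calls come from follow-up tests whose scores are not deposited, so confirmed genes may have low counts here; counts are not normalised per plate.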 The raw values are shown without normalisation. The numbers tell different reagents against one gene apart. Reagent sequences are not shown.

Test: 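Whole-genome screen for parts of the DNA damage checkpoint at G2/M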 (primary screen)
Cells: Drosophila S2R+ cells
Reagents: long dsRNA against Drosophila genes, about 0.25 µg dsRNA per well
Timing: 4 days of dsRNA, then 4 hours of drug before read-out
Conditions: doxorubicin 0.5 µM for 4 hours to cause double-strand breaks, in cells also given a low, harmless dose of dsRNA against nbs to sensitise the assay
Measured: 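Mitotic index as the number of phospho-histone H3-positive cells in each well following doxorubicin, given as raw counts without normalisation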
Direction: mitotic cells: higher = more cells in mitosis, weaker G2 arrest
Call rule: 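a call needs confirmation in secondary tests, with other dsRNAs and a check of mitotic timing without damage, not just a high primary count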
Meaning of the calls: active = confirmed in follow-up tests; inactive = not confirmed

Target gene	reagent no.	mitotic cells, replicate 1	outcome
CG17841	1	6	inactive
CG17841	2	5	inactive
CG30192	1	5	inactive
CG3587	1	10	inactive
CG3587	2	13	inactive
CG42266	1	9	inactive
CG42266	2	14	inactive
CG42266	3	4	inactive
CG13334	1	9	inactive
CG15717	1	6	inactive
CG12617	1	6	inactive
CG12617	2	8	inactive
CG10477	1	3	inactive
CG10477	2	5	inactive
danr	1	8	inactive
danr	2	4	inactive
GNBP2	1	5	inactive
nAChRalpha1	1	10	inactive
nAChRalpha1	2	4	inactive
nAChRalpha1	3	47	inactive
nAChRalpha1	4	10	inactive
Wdr59	1	3	inactive
CG30195	1	1	inactive
sktl	1	8	inactive
CG4927	1	2	inactive
CG4927	2	4	inactive
Vha100-2	1	7	inactive
Vha100-2	2	7	inactive
Droj2	1	14	inactive
Droj2	2	27	inactive
dpy	1	4	inactive
dpy	2	8	inactive
dpy	3	4	inactive
Shrm	1	4	inactive
Shrm	2	7	inactive
Shrm	3	10	inactive
Shrm	4	2	inactive
Shrm	5	10	inactive
CG6793	1	5	inactive
CG6793	2	1	inactive
CG5011	1	15	inactive
CG5011	2	4	inactive
CG5011	3	6	inactive
PRL-1	1	2	inactive
PRL-1	2	8	inactive
Sec61gamma	1	11	inactive
Sec61gamma	2	5	inactive
CG30289	1	10	inactive
gd	1	4	inactive
CG15373	1	7	inactive
CG12398	1	11	inactive
CG4297	1	3	inactive
eIF2A	1	3	inactive
CG4270	1	7	inactive
Vta1	1	15	inactive
Vta1	2	7	inactive
Nxf3	1	15	inactive
CG17782	1	3	inactive
CG31538	1	7	inactive
Debcl	1	1	inactive
Debcl	2	7	inactive
CG9289	1	6	inactive
CG9289	2	5	inactive
CG8300	1	9	inactive
CG8300	2	4	inactive
crc	1	8	inactive
CG31643	1	2	inactive
Mybbp1A	1	7	inactive
CG9555	1	5	inactive
CG9555	2	2	inactive
CG8620	1	2	inactive
CG8620	2	9	inactive
RabX4	1	9	inactive
RabX4	2	6	inactive
RpS5a	1	6	inactive
CG9609	1	3	inactive
CG9609	2	5	inactive
CG1603	1	4	inactive
CG1603	2	5	inactive
mthl1	1	7	inactive
CG5681	1	5	inactive
CG5681	2	3	inactive
dind	1	11	inactive
dind	2		inactive
CG1136	1	4	inactive
CG11726	1	3	inactive
Pxn	1	16	inactive
Pxn	2	4	inactive
l(2)k14505	1	7	inactive
Or30a	1	13	inactive
CG3795	1	3	inactive
CG3795	2	8	inactive
CG6304	1	7	inactive
CG6304	2	3	inactive
Apt1	1	5	inactive
Cyp40	1	3	inactive
Cyp40	2	4	inactive
Cyp4d8	1	3	inactive
Cyp4d8	2	5	inactive
scw	1	4	inactive
scw	2	3	inactive
hep	1	4	inactive
hep	2	12	inactive
hep	3	8	inactive
CG12477	1	8	inactive
CG12477	2	5	inactive
CG12828	1	2	inactive
CG17470	1	4	inactive
CG6701	1	2	inactive
ATPsynCF6	1	11	inactive

Look-ups from above.
Under “outcome”, scw #1 has inactive
For “mitotic cells, replicate 1”, CG30195 is entered as 1
Entry of CG10477 #1 in “mitotic cells, replicate 1”: 3
Under “outcome”, CG3587 #1 is entered as inactive
Entry of CG1603 #2 in “mitotic cells, replicate 1”: 5
Entry for CG11726 in “mitotic cells, replicate 1”: 3
